No constants are given. Whether binding was seen depends on the method and setting. Binding seen in cells or lysates may run through a third protein. Binding calls can cover weak binding; strength is not graded here.
Molecular target: GFP tagged TRIM25 (human (cDNA from HEK293T)) (UniProt Q14258)
Experiment: co-IP

Amino acid sequences for entries named in this document (tags omitted).
UniProt Q14258: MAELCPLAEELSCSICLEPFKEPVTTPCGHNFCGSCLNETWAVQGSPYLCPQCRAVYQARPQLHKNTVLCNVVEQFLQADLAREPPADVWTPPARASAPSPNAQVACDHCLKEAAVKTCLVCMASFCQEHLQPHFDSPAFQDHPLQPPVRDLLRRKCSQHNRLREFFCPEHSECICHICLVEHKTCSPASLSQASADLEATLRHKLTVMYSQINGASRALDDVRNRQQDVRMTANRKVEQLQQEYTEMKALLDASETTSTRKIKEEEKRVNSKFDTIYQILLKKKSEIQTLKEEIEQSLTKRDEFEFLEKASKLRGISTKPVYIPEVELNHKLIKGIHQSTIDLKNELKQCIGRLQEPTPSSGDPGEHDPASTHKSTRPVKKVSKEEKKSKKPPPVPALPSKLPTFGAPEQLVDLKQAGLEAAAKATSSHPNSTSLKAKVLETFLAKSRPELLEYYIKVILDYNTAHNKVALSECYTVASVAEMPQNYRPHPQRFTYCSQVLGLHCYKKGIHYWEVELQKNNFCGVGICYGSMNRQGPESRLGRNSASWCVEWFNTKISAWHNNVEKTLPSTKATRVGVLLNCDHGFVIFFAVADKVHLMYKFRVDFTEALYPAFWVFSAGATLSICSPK

## endogenous RTN3 (from UniProt O95197-3)
  binding: binds
